The other results are listed elsewhere or left out. Shown are side measurements of this screen, not its main read-out; they come without a call. The list favours compounds with an active or inconclusive main result. The note in brackets gives the kind of curve behind each potency; many fits are weak.
Experiment: qHTS Assay for Lipid Storage Modulators in Drosophila S3 Cells;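 as to cell number change: cells counted by Cell Tracker Red CMTPX staining in the red channel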
Details: BODIPY lipid droplet fluorescence, 18-24 h; for cell number change: measured here: cell count max response, cells fed with added oleic acid
Summary of the method: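 Drosophila S3 cells loaded with oleic acid (400 uM, as added) and compounds at several concentrations; lipid droplets imaged by 488-nm laser-scanning cytometry, 500–530 nm intensity and object ratio to cell channel. Percent activity normalized to 20 uM Triacsin C.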

[1] = measured here: lipid fluorescence (Fed channel) AC50, cells fed with added oleic acid
[2] = measured here: cell number channel AC50, cells fed with added oleic acid

| Compound | cell number change | AC50 [1] | AC50 [2] |
| --- | --- | --- | --- |
| CCC(C(=O)OCC(=O)NC(=O)c1ccccc1)c1ccccc1 (stereo not given) | -25% | 29.1 µM [falling, single point] |  |
| COc1ccc(C2CCCN2C(=O)c2cccs2)cc1 (stereo not given) | 22.5% | 29.1 µM [rising, single point] |  |
| COc1ccc(OC)c(C2SCCN2S(=O)(=O)c2cccc(C(F)(F)F)c2)c1 (stereo not given) | -16.6% | 32.6 µM [falling, single point] |  |
| CN(c1ccc(C(=O)NC2CCCC2)cc1)S(=O)(=O)c1ccc(Cl)cc1 | -16.1% | 18.4 µM [falling, partial curve, poor fit] |  |
| CCc1ccccc1NC(=O)CCc1c(C)nc(SC)nc1C |  | 0.116 µM [falling, partial curve, poor fit] |  |
| O=C(c1cc2ccccc2oc1=O)N1CCN(Cc2ccc3c(c2)OCO3)CC1 | -7.42% | 0.731 µM [rising, single point] |  |
| CCOC(=O)Nc1n[nH]c(NC(=O)OCC)c1[N+](=O)[O-] | -1.14% |  | 0.326 µM [rising, full curve] |
| Cc1ccnc(NS(=O)(=O)c2ccc(NC(=O)C3COc4ccccc4O3)cc2)n1 (stereo not given) | -4.37% |  | 6.51 µM [falling, partial curve, poor fit] |
| O=C(NCC(=O)N1CCN(c2ncccn2)CC1)c1ccc(F)cc1 | 30.2% | 2.59 µM [rising, full curve] | 2.91 µM [rising, full curve] |
| CC(C)c1nc2sc3c(=O)[nH]cnc3c2c2c1CCCC2 | -14.5% | 0.146 µM [falling, full curve, poor fit] |  |
| NS(=O)(=O)c1ccc(NC(=O)COC(=O)C2(c3ccccc3F)CCCC2)cc1 | 49.1% | 29.1 µM [rising, single point] | 29.1 µM [rising, single point] |
| O=C(NCc1ccco1)/C(=C/c1ccc(F)cc1)NC(=O)c1ccccc1 | 31% | 0.82 µM [rising, partial curve, poor fit] |  |
| COc1cc2[nH]c(=O)n(CCC(=O)N3CCN(Cc4ccc5c(c4)OCO5)CC3)c(=O)c2cc1OC | 49.7% | 2.59 µM [rising, full curve] | 29.1 µM [rising, single point] |
| Cc1csc2nc(CSc3nncn3-c3ccccc3)c(Br)n12 | 25.7% | 1.16 µM [rising, partial curve] |  |
| CCc1nnc(NC(=O)CCS(=O)(=O)c2ccccc2)s1 | -0.451% |  |  |
| Fc1cnc(N2CCN(c3ccccc3)CC2)nc1N1CCN(c2ccccc2)CC1 | 40% |  | 6.51 µM [rising, partial curve] |
| O=C1CCC(C(=O)N2CCCC2)CN1CCc1cccc(F)c1 (stereo not given) | 33.4% |  | 1.64 µM [rising, full curve, poor fit] |
| O=C(NCC(=O)N1CCN(S(=O)(=O)c2cccs2)CC1)c1ccc(Cl)cc1 | 72.5% |  |  |
| COc1ccc(C(C)(C)C)cc1S(=O)(=O)N1CCN(C)CC1 | 4.25% | 6.51 µM [rising, single point] |  |
| CCCOc1ccc(C(=O)NNC(=S)NC(=O)c2ccccc2[N+](=O)[O-])cc1 | -46% | 5.8 µM [falling, single point] | 32.6 µM [falling, partial curve] |

Copied from the list:
Value of `O=C(c1cc2ccccc2oc1=O)N1CCN(Cc2ccc3c(c2)OCO3)CC1` under cell number change: -7.42%
Value of `COc1ccc(OC)c(C2SCCN2S(=O)(=O)c2cccc(C(F)(F)F)c2)c1` (stereo not given) under cell number change: -16.6%

Carrying on:

| Compound | cell number change | AC50 [1] | AC50 [2] |
| --- | --- | --- | --- |
| CCN(CC)c1ccc(C2=NNC(=O)CC2C)cc1[N+](=O)[O-] (stereo not given) |  | 3.66 µM [rising, partial curve] | 3.26 µM [rising, partial curve] |
| CCOC(=O)CSc1cc(CS(=O)(=O)c2ccccc2)nc(-c2ccccc2)n1 | 9.61% | 3.26 µM [falling, single point] |  |
| Cc1ccc(C(=O)C2CCN(CC(=O)Nc3ccc4c(c3)OCCO4)CC2)cc1 | -2.16% |  | 0.58 µM [rising, partial curve] |
| CCc1ccccc1N(C(=O)c1ccco1)C(C(=O)NC1CCCC1)c1cccnc1 (stereo not given) | 3.81% | 29.1 µM [falling, single point] |  |
| O=C(c1cc2ccccc2o1)N1CCN(c2ccccc2Cl)CC1 | 2.59% | 0.92 µM [rising, full curve, poor fit] |  |
| CN1CCN(CCCCOc2ccccc2-c2ccccc2)CC1 | 12.3% | 6.51 µM [falling, single point] | 3.66 µM [falling, single point] |
| COc1ccc(Nc2nc(-c3sc(C)nc3C)cs2)c(OC)c1 | -46.8% |  | 8.2 µM [falling, partial curve, poor fit] |
| O=C(NNC(=O)c1cccc(S(=O)(=O)N2CCc3ccccc32)c1)c1ccccc1 | 4.64% |  |  |
| O=C(CSc1ncccn1)NC1CCS(=O)(=O)C1 (stereo not given) | 47.4% | 6.51 µM [rising, single point] | 6.51 µM [rising, full curve, poor fit] |
| Cc1ccc(C)c(NC(=O)Cn2nc([N+](=O)[O-])c(Br)c2C)c1 | -7.44% | 0.82 µM [falling, single point] | 0.00461 µM [falling, full curve, poor fit] |
| Cc1ccsc1CN(C)C(=O)C(NC(=O)c1cccc(S(=O)(=O)N2CCOCC2)c1)C(C)C (stereo not given) | -13.5% | 7.31 µM [falling, partial curve] |  |
| CN(C)CCCOC(=O)Cc1ccc(Cl)cc1 | -66.1% |  | 0.116 µM [falling, full curve] |
| COc1ccccc1NC(=O)c1c(C)cc(=O)oc1C | 2.86% | 0.731 µM [rising, full curve] |  |
| COC(=O)c1c(C)[nH]c(C(=O)OCC(=O)N(CC(C)C)c2c(N)n(Cc3ccccc3)c(=O)[nH]c2=O)c1C |  |  | 6.51 µM [rising, single point] |
| CCOc1ccc(-c2c(C#N)c(N)nc3sc(C(=O)c4ccccc4)c(N)c23)cc1 | 12.1% | 0.058 µM [rising, full curve, poor fit] |  |
| CC1(C)CC(=O)C(Br)=C(O)C1 | -46% | 35.5 µM [falling, single point] | 3.55 µM [falling, partial curve] |
| CN1CCSc2ccc(C(=O)NCc3cccc(Br)c3)cc21 | 17.9% |  |  |
| Cc1ccnc2nc(C(=O)OCC(=O)N(CC(C)C)CC(C)C)nn12 | -47.5% | 0.231 µM [falling, full curve] | 1.03 µM [falling, full curve] |
| COc1cccc(/C=C2\CCCCC2=O)c1 | 6.35% | 29.1 µM [rising, single point] |  |
| COCCCN(C(=O)C(C)Oc1ccc(Br)cc1)c1c(N)n(Cc2ccccc2)c(=O)[nH]c1=O (stereo not given) | 52.2% |  | 29.1 µM [rising, single point] |

| Compound | cell number change | AC50 [1] | AC50 [2] |
| --- | --- | --- | --- |
| O=C1CSC(c2ccccc2)N1c1ccc(F)cc1F (stereo not given) | 3.52% | 4.11 µM [rising, single point] |  |
| CCOC(=O)N1CCN(CC(=O)Nc2ccc(OC)cc2)CC1 | -35.1% | 0.00461 µM [falling, full curve, poor fit] | 0.651 µM [falling, full curve] |
| Cc1ccc(C(=O)NCC(=O)OCn2nnc3ccccc3c2=O)cc1 | 7.13% | 6.51 µM [rising, single point] |  |
| CNC(=O)C1CCN(S(=O)(=O)c2c(C)noc2/C=C/c2ccc(C)cc2)CC1 | 21.6% |  |  |
| Oc1cccc(-n2nnnc2SCc2ccccc2F)c1 | -23.7% | 32.6 µM [falling, single point] |  |
| CSCC[C@H](NS(=O)(=O)c1ccc(C)cc1)C(=O)N1CCC(C(=O)N[C@@H](Cc2ccccc2)C(=O)O)CC1 | 4.21% | 5.17 µM [rising, full curve] |  |
| CC1=NN(C(N)=S)C(=O)C1N=Nc1ccccc1 (stereo not given) | 17.5% | 0.517 µM [rising, partial curve, poor fit] | 0.0411 µM [rising, full curve, poor fit] |
| COc1ccc(-c2nnn(CC#N)n2)cc1OC | 53.3% |  | 13 µM [rising, partial curve, poor fit] |
| Nc1nnc(SCC(=O)Nc2sc3c(c2C(=O)c2ccccc2)CCCC3)s1 | 1.23% | 29.1 µM [falling, single point] |  |
| N#Cc1c(-c2ccccc2)cc(-c2ccccc2)[nH]c1=O | 23.5% |  |  |
| Cn1cccc1C1Nc2ccccc2NC2=C1C(=O)CC(C)(C)C2 (stereo not given) | 21.5% | 0.146 µM [falling, full curve] |  |
| CC(C)CN(CC(C)C)S(=O)(=O)N1CCC(C(=O)NCCc2ccc(Cl)cc2)CC1 | -3.6% |  | 5.17 µM [rising, single point] |
| COc1cc(/C=N/NC(=O)c2nonc2C)ccc1O | -9.19% | 1.16 µM [falling, partial curve, poor fit] |  |
| CCOc1ccc2[nH]c3c(NCCOC)ncnc3c2c1 | -23.4% |  |  |
| Cc1nc2cc(NC(=O)N3c4ccccc4CC3C)ccc2n1C (stereo not given) | -6.41% | 1.3 µM [rising, partial curve] |  |
| Cc1cc(=O)oc2c3c(cc(OCC(=O)Nc4ccc(CCO)cc4)c12)OC(C)(C)CC3 | 1.36% | 5.17 µM [falling, full curve] |  |
| O=C(N/N=C/c1ccc(Br)o1)c1ccc2c(c1)OCCO2 | 25.6% | 29.1 µM [rising, single point] |  |
| NC(=O)c1ccsc1NC(=O)COC(=O)c1ccccc1F | 21.2% | 6.51 µM [rising, single point] |  |
| Oc1ccc(Cl)cc1C=Nc1ccc2c3c(cccc13)CC2 | 1.92% |  | 1.46 µM [falling, partial curve] |

2 compounds picked at random from the list so far, as already listed:

| Compound | cell number change | AC50 [1] | AC50 [2] |
| --- | --- | --- | --- |
| NS(=O)(=O)c1ccc(NC(=O)COC(=O)C2(c3ccccc3F)CCCC2)cc1 | 49.1% | 29.1 µM [rising, single point] | 29.1 µM [rising, single point] |
| Cc1ccc(C(=O)NCC(=O)OCn2nnc3ccccc3c2=O)cc1 | 7.13% | 6.51 µM [rising, single point] |  |
